According to PubChem BioAssay AID256 (DTP/NCI, 2004):
The list is a part of this screen's results and no random one: it gathers tests that were run many times, whatever their T/C, doses with no T/C, and many T/C values between a quarter and a half above the control. Further doses and runs are listed elsewhere. T/C: endpoint of the treated group in % of that of the vehicle group. Some doses have a count of surviving animals in place of a T/C: the source files T/C as zero there, which appears to mark a toxic dose or a test without result, not a measured value. Some doses without a T/C left all or most animals alive at the check, yet need not have been tolerated: the source hardly ever lists a survival T/C far under the control, and the zero likely stands for such cases as well. Counts of survivors are from the toxicity check (mostly the fifth day) where no day follows; animals may have died later. Schedules are NCI's codes, read here as Q, the interval in days (D) or hours (H), X, the number of doses. Some doses were run more than once; the values are given in rising order. For survival time, the PubChem record calls one and a half times the control and up active, and a quarter to a half above the control has no call in these data; cut-offs in other NCI protocols can differ. Some T/C values are followed by the survivors on the day toxicity was checked, most often the fifth; where none is given, no animal had died by that day. Additions like (4×) say how often a value occurs here.

Test system: CD2F1 mice, L1210 leukemia ip, survival T/C
Test: NCI In Vivo Anticancer Drug Screen. Data for tumor model L1210 Leukemia (intraperitoneal) in CD2F1 (CDF1) mice
Conditions: higher T/C = longer survival
How it was run: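 Ratio T/C, where T is the treated-group value and C the vehicle-dosed control value, from mice implanted with a transplantable tumor.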

[1] = T/C endpoint: mean survival time, dose: 50.0 mg/kg/injection, schedule: Q04DX003 (ip), vehicle: saline with Tween-80
[2] = T/C endpoint: mean survival time, dose: 100.0 mg/kg/injection, schedule: Q04DX003 (ip), vehicle: saline with Tween-80
[3] = T/C endpoint: mean survival time, dose: 200.0 mg/kg/injection, schedule: Q04DX003 (ip), vehicle: saline with Tween-80
[4] = T/C endpoint: mean survival time, dose: 400.0 mg/kg/injection, schedule: Q04DX003 (ip), vehicle: saline with Tween-80
[5] = T/C endpoint: mean survival time, dose: 400.0 mg/kg/injection, schedule: Q01DX009 (ip), vehicle: saline with Tween-80
[6] = T/C endpoint: mean survival time, dose: 100.0 mg/kg/injection, schedule: Q04DX003 (ip), vehicle: saline
[7] = T/C endpoint: mean survival time, dose: 200.0 mg/kg/injection, schedule: Q01DX005 (ip), vehicle: water
[8] = T/C endpoint: mean survival time, dose: 400.0 mg/kg/injection, schedule: Q01DX005 (ip), vehicle: water
[9] = T/C endpoint: mean survival time, dose: 200.0 mg/kg/injection, schedule: Q04DX002 (ip), vehicle: saline with Tween-80
[10] = T/C endpoint: mean survival time, dose: 50.0 mg/kg/injection, schedule: Q01DX009 (ip), vehicle: saline

O=C1NC(=O)c2cc(C(F)(F)F)ccc21
survivor count (T/C endpoint: mean survival time, dose: 25.0 mg/kg/injection, schedule: Q01DX009 (ip), vehicle: saline with Tween-80): 1 of 6 | survivor count [1]: 0 of 6 | survivor count [2]: 5 of 6 | survivor count [3]: 0 of 6 | survivor count [4]: 0 of 6

CCC[CH2][Sn]1([CH2]CCC)[O]C2C(CO)OC(n3cnc4c(N)ncnc43)C2[O]1 (stereo unspecified)
survivor count (T/C endpoint: mean survival time, dose: 6.25 mg/kg/injection, schedule: Q01DX005 (ip), vehicle: other): 4 of 6 | survivor count (T/C endpoint: mean survival time, dose: 12.5 mg/kg/injection, schedule: Q01DX005 (ip), vehicle: other): 1 of 6 | survivor count (T/C endpoint: mean survival time, dose: 25.0 mg/kg/injection, schedule: Q01DX005 (ip), vehicle: other): 0 of 6

CCCC(=O)NC1=C(Cl)C(=O)c2ccccc2C1=O
survivor count (T/C endpoint: mean survival time, dose: 40.0 mg/kg/injection, schedule: Q01DX001 (ip), vehicle: saline): 0 of 6 | survivor count (T/C endpoint: mean survival time, dose: 80.0 mg/kg/injection, schedule: Q01DX001 (ip), vehicle: saline): 0 of 6

COc1ccc2nc3c(C)c4ccn(O)cc4c(C)c3c2c1
T/C (T/C endpoint: mean survival time, dose: 200.0 mg/kg/injection, schedule: Q04DX003 (ip), vehicle: water): 128 % of control | T/C (T/C endpoint: mean survival time, dose: 400.0 mg/kg/injection, schedule: Q04DX003 (ip), vehicle: water): 128 % of control [5 of 6 alive]

CCOC(=O)Nc1cc(F)c(F)cc1F
survivor count [5]: 0 of 6

N#CN=Nc1ccc(Cl)cc1
survivor count (T/C endpoint: mean survival time, dose: 75.0 mg/kg/injection, schedule: Q01DX001 (ip), vehicle: other): 0 of 6 | survivor count (T/C endpoint: mean survival time, dose: 150.0 mg/kg/injection, schedule: Q01DX001 (ip), vehicle: other): 0 of 6 | survivor count (T/C endpoint: mean survival time, dose: 300.0 mg/kg/injection, schedule: Q01DX001 (ip), vehicle: other): 0 of 6

CC(C)(CO)CN1CCCCC1
survivor count [4]: 1 of 6

COc1c(NC(C)=O)cc2c(c1C)OC(C)(C)C=C2
survivor count [5]: 1 of 6

c1cc(-n2nnc3cnccc32)ccn1
survivor count [6]: 1 of 6

CN(C)c1nc(N)cc(-c2ccncc2)n1
survivor count (T/C endpoint: mean survival time, dose: 400.0 mg/kg/injection, schedule: Q04DX002 (ip), vehicle: saline): 0 of 3

O=c1[nH]c(=O)n(CCCO)cc1F
T/C (T/C endpoint: mean survival time, dose: 100.0 mg/kg/injection, schedule: Q01DX005 (ip), vehicle: water): 132 and 146 % of control | survivor count [7]: 4 of 6 | survivor count [8]: 0 of 6

Brc1ccc(C[N+]23CCN(CC2)CC3)cc1
survivor count (T/C endpoint: mean survival time, dose: 100.0 mg/kg/injection, schedule: Q01DX001 (ip), vehicle: saline): 2 of 6 | survivor count (T/C endpoint: mean survival time, dose: 200.0 mg/kg/injection, schedule: Q01DX001 (ip), vehicle: saline): 0 of 6 | survivor count (T/C endpoint: mean survival time, dose: 400.0 mg/kg/injection, schedule: Q01DX001 (ip), vehicle: saline): 0 of 6

CCC(C)[Se][Se]C(C)CC (stereo unspecified)
survivor count [1]: 6 of 6 | survivor count [2]: 0 of 6

O=C(COc1ccccc1)NC(=S)Nc1ccc(Cl)c(Cl)c1
T/C (T/C endpoint: mean survival time, dose: 50.0 mg/kg/injection, schedule: Q04DX002 (ip), vehicle: saline with Tween-80): 90, 93 [5 of 6 alive], 94, 104 % of control | T/C (T/C endpoint: mean survival time, dose: 100.0 mg/kg/injection, schedule: Q04DX002 (ip), vehicle: saline with Tween-80): 92, 94, 98, 105, 131 % of control | T/C [9]: 96 (2×), 104, 105 % of control | survivor count [9]: 3 of 3 | survivor count (T/C endpoint: mean survival time, dose: 400.0 mg/kg/injection, schedule: Q04DX002 (ip), vehicle: saline with Tween-80): 0 of 3

ClCCCN1CCCCC1CCl (stereo unspecified)
T/C (T/C endpoint: mean survival time, dose: 12.5 mg/kg/injection, schedule: Q04DX003 (ip), vehicle: saline): 127 % of control | survivor count (T/C endpoint: mean survival time, dose: 50.0 mg/kg/injection, schedule: Q04DX003 (ip), vehicle: saline): 6 of 6

CCN(CC)CCNc1ccc(C)c2sc3ccccc3c(=O)c12
T/C (T/C endpoint: mean survival time, dose: 50.0 mg/kg/injection, schedule: Q01DX007 (ip), vehicle: saline): 128 % of control | T/C [10]: 136 % of control | T/C (T/C endpoint: mean survival time, dose: 60.0 mg/kg/injection, schedule: Q01DX005 (ip), vehicle: water): 137 % of control | T/C (T/C endpoint: mean survival time, dose: 100.0 mg/kg/injection, schedule: Q03DX003 (ip), vehicle: saline): 125 % of control | T/C [6]: 132 % of control | T/C (T/C endpoint: median survival time, dose: 25.0 mg/kg/injection, schedule: Q01DX009 (ip), vehicle: water): 132 % of control | T/C (T/C endpoint: median survival time, dose: 50.0 mg/kg/injection, schedule: Q01DX009 (ip), vehicle: saline with Tween-80): 125 % of control | T/C (T/C endpoint: median survival time, dose: 50.0 mg/kg/injection, schedule: Q01DX009 (ip), vehicle: saline): 137, 144, 146 % of control | survivor count (T/C endpoint: median survival time, dose: 200.0 mg/kg/injection, schedule: Q01DX009 (ip), vehicle: saline): 5 of 6, 9 of 10, 6 of 6 | survivor count (T/C endpoint: median survival time, dose: 400.0 mg/kg/injection, schedule: Q01DX009 (ip), vehicle: saline with Tween-80): 0 of 6 | survivor count (T/C endpoint: median survival time, dose: 400.0 mg/kg/injection, schedule: Q01DX009 (ip), vehicle: saline): 5 of 10

CSc1ncc(N=C=O)c(=O)[nH]1
survivor count (T/C endpoint: mean survival time, dose: 400.0 mg/kg/injection, schedule: Q01DX001 (ip), vehicle: saline with Tween-80): 0 of 6

O=C(/C=C\c1ccc(/C=C/C(=O)Nc2cccc(C3=NCCCN3)c2)cc1)Nc1cccc(C2=NCCCN2)c1
T/C (T/C endpoint: median survival time, dose: 1.25 mg/kg/injection, schedule: Q01DX009 (ip), vehicle: Klucel (hydroxypropylcellulose) (HPC)): 126 and 128 % of control | T/C (T/C endpoint: median survival time, dose: 2.5 mg/kg/injection, schedule: Q01DX009 (ip), vehicle: Klucel (hydroxypropylcellulose) (HPC)): 139 and 147 % of control | T/C (T/C endpoint: median survival time, dose: 20.0 mg/kg/injection, schedule: Q01DX009 (ip), vehicle: Klucel (hydroxypropylcellulose) (HPC)): 137 % of control

NC1=C(Cl)C(=O)C(N)=C(Cl)C1=O
survivor count [4]: 0 of 3

NC(=Nc1ccc(Cl)cc1)/N=C(/N)N1CCN(/C(N)=N/C(N)=Nc2ccc(Cl)cc2)CC1
survivor count (T/C endpoint: mean survival time, dose: 100.0 mg/kg/injection, schedule: Q01DX009 (ip), vehicle: saline with Tween-80): 0 of 6 | survivor count (T/C endpoint: mean survival time, dose: 200.0 mg/kg/injection, schedule: Q01DX009 (ip), vehicle: saline with Tween-80): 0 of 6 | survivor count [4]: 0 of 6

S=c1nccc[nH]1.[Pd]
survivor count (T/C endpoint: mean survival time, dose: 100.0 mg/kg/injection, schedule: Q04DX003 (ip), vehicle: distilled water + Tween-80): 2 of 6 | survivor count (T/C endpoint: mean survival time, dose: 200.0 mg/kg/injection, schedule: Q04DX003 (ip), vehicle: distilled water + Tween-80): 0 of 6

CCCCCCn1ncc(=O)[nH]c1=O
T/C [10]: 92, 93, 98, 104 % of control | T/C (T/C endpoint: mean survival time, dose: 100.0 mg/kg/injection, schedule: Q01DX009 (ip), vehicle: saline): 93, 95, 102, 120 % of control

CC1CN(Cc2ccccc2O)CC(C)N1 (stereo unspecified)
survivor count [7]: 2 of 6 | survivor count [8]: 1 of 6

COc1cccc(C(=O)C=C(C(F)(F)F)C(F)(F)F)c1
survivor count (T/C endpoint: mean survival time, dose: 50.0 mg/kg/injection, schedule: Q01DX009 (ip), vehicle: saline with Tween-80): 0 of 6

CC1CCS(=O)(=O)CC1.[Cl][Hg][Cl]
survivor count (T/C endpoint: mean survival time, dose: 2.5 mg/kg/injection, schedule: Q04DX003 (ip), vehicle: saline): 3 of 6 | survivor count (T/C endpoint: mean survival time, dose: 5.0 mg/kg/injection, schedule: Q04DX003 (ip), vehicle: saline with Tween-80): 1 of 6 | survivor count (T/C endpoint: mean survival time, dose: 10.0 mg/kg/injection, schedule: Q04DX003 (ip), vehicle: saline with Tween-80): 0 of 6 | survivor count (T/C endpoint: mean survival time, dose: 20.0 mg/kg/injection, schedule: Q04DX003 (ip), vehicle: saline with Tween-80): 0 of 6 | survivor count [2]: 0 of 6 | survivor count [3]: 0 of 6 | survivor count [4]: 0 of 6

CNC/C(C)=C/Cl
survivor count (T/C endpoint: mean survival time, dose: 200.0 mg/kg/injection, schedule: Q01DX009 (ip), vehicle: acetone): 3 of 6

Clc1cc2n[nH]nc2c(Cl)n1
survivor count (T/C endpoint: mean survival time, dose: 200.0 mg/kg/injection, schedule: Q01DX009 (ip), vehicle: water): 1 of 6 | survivor count (T/C endpoint: mean survival time, dose: 400.0 mg/kg/injection, schedule: Q01DX009 (ip), vehicle: water): 0 of 6
